We go through 1 sequence from paper PMC9018702.

The exact form of at least one protein or probe is not confirmed. For part of these data: A negative result means that nothing was seen under these conditions.

Common to all, as to experiment: EMSA
Background: A gel shift assay detects complexes by their altered migration in electrophoresis.

Series [1] concerns MBP-OsMS1. Particulars: MBP-OsMS1 alone; EMSA: 10 mM Tris-HCl pH 7.5, 50 mM KCl, 5 mM MgCl2, 1 mM DTT, 2.5% glycerol, 0.05% NP-40, 50 ng/uL poly(dI-dC), 10 fmol probe, 1 ug protein in 20 uL; recombinant protein; protein details: MBP (N-terminal, pMAL-c2); label: biotin.
Series [2] relates to MBP-TDR + MBP-OsMS1wenmin1. The conditions noted are these: increasing MBP-OsMS1wenmin1 enhances TDR binding, a bit weaker than OsMS1; EMSA: 10 mM Tris-HCl pH 7.5, 50 mM KCl, 5 mM MgCl2, 1 mM DTT, 2.5% glycerol, 0.05% NP-40, 50 ng/uL poly(dI-dC), 10 fmol probe, 1 ug protein in 20 uL; recombinant protein; label: biotin.
Series [3] deals with MBP-TDR + MBP-OsMS1. The conditions noted are these: increasing MBP-OsMS1 enhances TDR binding; EMSA: 10 mM Tris-HCl pH 7.5, 50 mM KCl, 5 mM MgCl2, 1 mM DTT, 2.5% glycerol, 0.05% NP-40, 50 ng/uL poly(dI-dC), 10 fmol probe, 1 ug protein in 20 uL; recombinant protein; label: biotin.

For “GCGTATCGTGGTCATCTGTCTATTTTACATGCACTTGTAGCTGGATAAA (double strand) [EAT1 promoter P1 probe]”, the binding result in series [1] is recorded as “no binding”; in series [2] it was “binds”; in series [3], “binds”.
